Drawing on PubChem BioAssay, this text covers suppression of toxicity for 47 compounds.

SMILES strings stand for the structures. Some of the results follow. Potency and affinity values are given separately. Where no call is shown, the source marks the result inconclusive.

Assay [1] in a line: Drosophila SCA1 whole organism dose response for polyglutamine toxicity reduction (AID 1595). The note with it: Drosophila SCA1 polyglutamine model, at 1 µM, stronger effect = higher value.
The nature of another assay: PubChem AID 1597. The note with it: Drosophila SCA1 polyglutamine model, at 1 µM, stronger effect = higher value.

Take `Cc1cccc(Nc2ccccc2C(=O)O)c1C`: the figures for the suppression of toxicity (in assay [1]; in the assay “PubChem AID 1597”) were 8.57 and 5.71, respectively.
In the same order, the values of `Cc1noc(NS(=O)(=O)c2ccc(N)cc2)c1C` are 21.4 and 0.715.
The matching figures for `CCCCC(CC)CN1CN(CC(CC)CCCC)CC(C)(N)C1` (centres undefined): 8.57 and 11.4.
On to `Cc1cc(=O)n(-c2ccccc2)n1C`, for which the values for the suppression of toxicity (in assay [1]; in “PubChem AID 1597”) were 2.86 and 3.57, respectively.
The matching figures for `C#C[C@]1(O)CCC2C3CCC4=C(CCC(=O)C4)C3CC[C@@]21C` (some centres undefined): 0 and 7.14.
In the same order, the values of `C[C@](N)(Cc1ccc(O)c(O)c1)C(=O)O` are 7.14 and 10.
For the compound `CCN(CCO)CCCC(C)Nc1ccnc2cc(Cl)ccc12` (centres undefined), the suppression of toxicity in assay [1] turned out to be 0; in “PubChem AID 1597”, 0.715.
On to `CO/N=C(/C(=O)NC1C(=O)N2C(C(=O)O)=C(COC(N)=O)CSC12)c1ccco1` (centres undefined), for which the suppression of toxicity worked out at 1.43 in assay [1] and 3.58 in the assay “PubChem AID 1597”.
With `CN1CCC[C@@H]1CCO[C@](C)(c1ccccc1)c1ccc(Cl)cc1`, the suppression of toxicity is 4.29 in assay [1] and 7.14 in “PubChem AID 1597”.
In the same order, the values of `Nc1nc(=S)c2[nH]cnc2[nH]1` are 4.29 and 1.43.
As to `CC1=C(/C=C/C(C)=C/C=C/C(C)=C/CO)C(C)(C)CCC1`, the suppression of toxicity is 1.43 in assay [1] and 8.57 in “PubChem AID 1597”.
With `NC(=O)NO`, the suppression of toxicity (in assay [1]; in “PubChem AID 1597”) was 1.43 throughout.
With `CCN1CCN(C(=O)NC(C(=O)N[C@@H]2C(=O)N3[C@@H]2SC(C)(C)[C@@H]3C(=O)O)c2ccccc2)C(=O)C1=O` (some centres undefined), the figures for the suppression of toxicity (in assay [1]; in the assay “PubChem AID 1597”) were 5.71 and 6.43, respectively.
Turning to `CN1CCN(C(c2ccccc2)c2ccc(Cl)cc2)CC1` (centres undefined), the suppression of toxicity in assay [1] is 2.86; in “PubChem AID 1597”, 12.9.
Turning to `CC(CNC(=O)c1ccccc1)C(=O)OCC(=O)[C@@]12OC(C)(C)O[C@@H]1CC1C3CCC4=CC(=O)C=C[C@]4(C)[C@@]3(F)[C@@H](O)C[C@@]12C` (some centres undefined), the suppression of toxicity in assay [1] was 0; in the assay “PubChem AID 1597” it was 0.715.
Consider `CCCCN1CCCCC1C(=O)Nc1c(C)cccc1C` (centres undefined), for which the results for the suppression of toxicity (in assay [1]; in “PubChem AID 1597”) were 2.85 and 5, respectively.
For `Cc1ccc(S(=O)(=O)NC(=O)NN2CCCCCC2)cc1`, the results for the suppression of toxicity (in assay [1]; in the assay “PubChem AID 1597”) were 5.74 and 11.5, respectively.
With `Cc1c(N)c(=O)n(-c2ccccc2)n1C`, the figures for the suppression of toxicity (in assay [1]; in “PubChem AID 1597”) were 0 and 0.715, respectively.
In the same order, the values of `O=C(O)c1cc(=O)c2ccccc2o1` are 1.43 and 2.15.
On to `CC[C@]12CCCN3CCc4c(n(c5ccccc45)C(=O)C1)[C@@H]32`, for which the suppression of toxicity came out at 24.3 in assay [1] and 6.42 in “PubChem AID 1597”.
On to `CCN(CC)CCOc1ccc2c(c1)C(=O)c1cc(OCCN(CC)CC)ccc1-2`, for which the suppression of toxicity came to 1.43 in assay [1] and 10.7 in the assay “PubChem AID 1597”.
In the same order, the values of `CCC(=O)OC1CCC2C3CCc4cc(O)ccc4C3CCC12C` (centres undefined) are 1.43 and 1.43.
The matching figures for `COc1cc(NS(=O)(=O)c2ccc(N)cc2)ncn1`: 0 and 0.715.
Regarding `CC1COc2c(N3CCN(C)CC3)c(F)cc3c(=O)c(C(=O)O)cn1c23` (centres undefined), the suppression of toxicity in assay [1] was 1.43; in the assay “PubChem AID 1597”, 5.
For the compound `CNCCCN1c2ccccc2CCc2ccccc21`, the suppression of toxicity in assay [1] came to 2.85; in the assay “PubChem AID 1597”, 2.15.
With `COc1ccc2c3c1O[C@H]1C[C@@H](O)C=C[C@@]31CCN(C)C2`, the suppression of toxicity (in assay [1]; in the assay “PubChem AID 1597”) was 2.86 in each case.
For `C=C(C)[C@H]1CC=C(C(=O)O)CC1`, the figures for the suppression of toxicity (in assay [1]; in the assay “PubChem AID 1597”) were 8.57 and 15, respectively.
With `CCN(CC)CCOCCOC(=O)C1(c2ccccc2)CCCC1`, the suppression of toxicity stood at 2.85 in assay [1] and 6.43 in “PubChem AID 1597”.
Turning to `C[N+]1(CCCCC[N+]2(C)CCCC2)CCCC1`, the suppression of toxicity in assay [1] is 0; in the assay “PubChem AID 1597” it was 2.15.
The matching figures for `CCN(CC)CC(=O)Nc1c(C)cccc1C`: 5.71 and 7.86.
In the case of `N[C@@H](CCC(=O)N[C@@H](CS)C(=O)NCC(=O)O)C(=O)O`, the suppression of toxicity in assay [1] was determined as 4.29; in “PubChem AID 1597”, 7.86.
For the compound `CC[C@H]1CN2CCc3cc(OC)c(OC)cc3C2C[C@@H]1CC1NCCc2cc(OC)c(OC)cc21` (some centres undefined), the suppression of toxicity in assay [1] came to 0; in “PubChem AID 1597”, 0.715.
With `CC[C@@H](C(=O)C(C)[C@@H](O)[C@H](C)CCc1ccc(C)c(O)c1C(=O)O)C1OC(CC)(C2CC[C@](O)(CC)[C@H](C)O2)C[C@@H]1C` (some centres undefined), the suppression of toxicity in assay [1] was 4.29; in the assay “PubChem AID 1597”, 5.
On to `C[C@]12CCC(=O)C=C1CCC1C2[C@@H](O)C[C@@]2(C)C1CC[C@]2(O)C(=O)COC(=O)CCC(=O)O` (some centres undefined), for which the results for the suppression of toxicity (in assay [1]; in the assay “PubChem AID 1597”) were 8.57 and 3.58, respectively.
The matching figures for `CN1CCN(CC(=O)N2c3ccccc3C(=O)Nc3cccnc32)CC1`: 7.14 and 12.1.
As for `CC(C)Cn1c(=O)n(C)c(=O)c2[nH]cnc21`, the suppression of toxicity in assay [1] is 15.7; in the assay “PubChem AID 1597”, 12.9.
Turning to `CN(Cc1cnc2nc(N)nc(N)c2n1)c1ccc(C(=O)N[C@@H](CCC(=O)O)C(=O)O)cc1`, the figures for the suppression of toxicity (in assay [1]; in the assay “PubChem AID 1597”) were 5.71 and 6.42, respectively.
Consider `Cn1c([N+](=O)[O-])cnc1COC(N)=O`, for which the suppression of toxicity in assay [1] was found to be 0; in “PubChem AID 1597” it was 12.9.
As for `CO[C@H]1C[C@H](O[C@H]2[C@H](C)[C@@H](OC3O[C@H](C)C[C@H](N(C)C)[C@H]3O)[C@@H](C)C[C@]3(CO3)C(=O)[C@H](C)[C@@H](O)[C@@H](C)[C@@H](C)OC(=O)[C@@H]2C)O[C@@H](C)[C@@H]1O` (some centres undefined), the suppression of toxicity in assay [1] was found to be 0; in “PubChem AID 1597” it was 3.58.
As to `Cc1oncc1C(=O)Nc1ccc(C(F)(F)F)cc1`, the suppression of toxicity in assay [1] was 1.43; in “PubChem AID 1597”, 4.29.
For `CC(=O)OCC(=O)[C@@]1(O)[C@H](C)CC2C3CCC4=CC(=O)C=C[C@]4(C)[C@@]3(F)[C@@H](O)C[C@@]21C` (some centres undefined), the suppression of toxicity (in assay [1]; in “PubChem AID 1597”) was 0 throughout.
Turning to `OC[C@H]1O[C@@H](O[C@@H]2[C@@H](CO)O[C@](O)(CO)[C@H]2O)[C@H](O)[C@@H](O)[C@H]1O`, the suppression of toxicity came to 7.14 in assay [1] and 16.4 in “PubChem AID 1597”.
Take `NC(N)=NS(=O)(=O)c1ccc(N)cc1`: the suppression of toxicity is 1.43 in assay [1] and 2.15 in the assay “PubChem AID 1597”.
For `CN1C2CCC1CC(OC(c1ccccc1)c1ccccc1)C2` (centres undefined), the values for the suppression of toxicity (in assay [1]; in the assay “PubChem AID 1597”) were 1.43 and 7.14, respectively.
For the compound `Cc1ccc(N(CC2=NCCN2)c2cccc(O)c2)cc1`, the results for the suppression of toxicity (in assay [1]; in “PubChem AID 1597”) were 0 and 10, respectively.
In the same order, the values of `CCCNC(C)C(=O)Nc1ccccc1C` (centres undefined) are 1.43 and 2.15.
In the same order, the values of `COc1ccc([C@@H]2CC(=O)c3c(O)cc(O[C@@H]4O[C@H](CO[C@H]5O[C@@H](C)[C@H](O)[C@@H](O)[C@H]5O)[C@@H](O)[C@H](O)[C@H]4O)cc3O2)cc1O` are 0 and 2.15.
